# Experimental data: patent US5770430
# The chains behind the UniProt entries cited, without tags or fusion partners. Residues count along the entry.
# UniProt P08047, 2-785: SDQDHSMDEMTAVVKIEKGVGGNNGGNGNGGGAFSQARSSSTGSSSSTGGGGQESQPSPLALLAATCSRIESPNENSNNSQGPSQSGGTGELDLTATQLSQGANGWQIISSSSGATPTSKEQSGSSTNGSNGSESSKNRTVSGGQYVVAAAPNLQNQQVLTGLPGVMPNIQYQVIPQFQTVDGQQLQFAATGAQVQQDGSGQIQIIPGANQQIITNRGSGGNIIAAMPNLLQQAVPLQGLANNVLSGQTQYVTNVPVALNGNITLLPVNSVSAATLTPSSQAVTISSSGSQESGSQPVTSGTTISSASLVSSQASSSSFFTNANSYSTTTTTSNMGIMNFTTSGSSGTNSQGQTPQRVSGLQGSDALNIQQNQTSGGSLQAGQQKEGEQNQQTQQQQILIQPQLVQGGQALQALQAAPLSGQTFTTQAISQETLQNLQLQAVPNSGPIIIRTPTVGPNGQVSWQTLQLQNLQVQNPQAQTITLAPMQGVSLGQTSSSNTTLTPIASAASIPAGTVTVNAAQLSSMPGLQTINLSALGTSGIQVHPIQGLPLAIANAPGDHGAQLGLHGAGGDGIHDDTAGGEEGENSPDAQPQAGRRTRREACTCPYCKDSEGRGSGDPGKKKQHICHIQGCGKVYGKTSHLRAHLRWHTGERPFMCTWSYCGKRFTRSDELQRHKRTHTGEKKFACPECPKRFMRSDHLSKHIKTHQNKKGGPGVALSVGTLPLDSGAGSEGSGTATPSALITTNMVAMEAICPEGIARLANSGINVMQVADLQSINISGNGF
# Biological target: Sp1 (in 2008 cell nuclear extract) (Homo sapiens) (UniProt P08047)
# Test: EMSA
# Conditions: untreated and paclitaxel-treated extracts; supershift with anti-Sp1 PEP2; shift abolished by Sp1 immunodepletion; protein in an extract; protein details: endogenous, 2008 ovarian carcinoma nuclear extract; label: 32P
sequence,measurement,value
AGGCTCCTGGGTCCCGCCCCCCAAAAGAGGGGACGGGCC (double strand) [CIRE (GADD153 -74 to -35)],binding result,binds

# At least one result comes from cells or an extract, where the contact may be indirect.
